Experimental findings from the supplement of paper PMC7666118 are described below.

By UniProt entry, the sequences of proteins in these tests, tags left out. Where a name states a change or a piece, a line headed by the entry shows the natural chain unless it says otherwise.
UniProt Q5TA45, whole entry: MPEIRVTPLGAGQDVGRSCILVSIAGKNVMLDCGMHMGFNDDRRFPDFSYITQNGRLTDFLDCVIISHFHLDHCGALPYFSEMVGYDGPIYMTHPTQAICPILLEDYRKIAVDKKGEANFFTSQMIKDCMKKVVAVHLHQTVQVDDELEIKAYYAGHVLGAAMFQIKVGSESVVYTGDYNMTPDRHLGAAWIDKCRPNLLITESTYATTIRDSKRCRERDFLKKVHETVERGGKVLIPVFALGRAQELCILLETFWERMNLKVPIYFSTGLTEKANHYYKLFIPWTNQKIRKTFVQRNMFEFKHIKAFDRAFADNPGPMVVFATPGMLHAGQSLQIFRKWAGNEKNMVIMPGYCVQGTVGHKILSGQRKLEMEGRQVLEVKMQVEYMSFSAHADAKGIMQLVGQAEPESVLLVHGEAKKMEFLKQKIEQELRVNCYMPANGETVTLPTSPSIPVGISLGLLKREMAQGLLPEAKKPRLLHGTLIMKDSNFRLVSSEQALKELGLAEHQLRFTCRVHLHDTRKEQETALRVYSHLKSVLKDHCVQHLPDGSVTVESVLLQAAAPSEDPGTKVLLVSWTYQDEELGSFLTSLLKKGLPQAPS
UniProt Q9Y664: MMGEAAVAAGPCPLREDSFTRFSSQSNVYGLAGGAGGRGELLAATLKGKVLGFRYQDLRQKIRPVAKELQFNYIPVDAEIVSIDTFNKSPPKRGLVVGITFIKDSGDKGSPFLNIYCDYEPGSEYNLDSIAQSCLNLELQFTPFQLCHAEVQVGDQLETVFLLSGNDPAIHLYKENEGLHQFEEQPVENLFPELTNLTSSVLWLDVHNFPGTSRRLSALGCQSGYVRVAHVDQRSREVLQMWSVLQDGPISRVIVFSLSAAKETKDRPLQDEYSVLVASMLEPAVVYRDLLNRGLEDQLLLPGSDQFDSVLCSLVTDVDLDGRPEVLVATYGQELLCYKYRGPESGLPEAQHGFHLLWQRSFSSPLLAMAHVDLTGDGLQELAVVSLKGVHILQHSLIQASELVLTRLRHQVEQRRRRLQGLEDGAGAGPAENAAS
UniProt Q96FT9: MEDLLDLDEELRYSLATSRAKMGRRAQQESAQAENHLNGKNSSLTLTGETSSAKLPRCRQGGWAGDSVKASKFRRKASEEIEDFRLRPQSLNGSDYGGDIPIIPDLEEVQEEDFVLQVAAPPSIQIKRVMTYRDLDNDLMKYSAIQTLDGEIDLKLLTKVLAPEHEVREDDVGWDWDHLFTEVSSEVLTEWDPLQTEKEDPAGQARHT
UniProt P05161, whole entry: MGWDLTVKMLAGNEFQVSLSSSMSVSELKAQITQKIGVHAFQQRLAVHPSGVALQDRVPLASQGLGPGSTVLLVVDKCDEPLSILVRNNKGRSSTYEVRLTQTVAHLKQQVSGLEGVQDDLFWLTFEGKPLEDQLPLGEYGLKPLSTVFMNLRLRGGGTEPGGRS
UniProt Q8IWL3: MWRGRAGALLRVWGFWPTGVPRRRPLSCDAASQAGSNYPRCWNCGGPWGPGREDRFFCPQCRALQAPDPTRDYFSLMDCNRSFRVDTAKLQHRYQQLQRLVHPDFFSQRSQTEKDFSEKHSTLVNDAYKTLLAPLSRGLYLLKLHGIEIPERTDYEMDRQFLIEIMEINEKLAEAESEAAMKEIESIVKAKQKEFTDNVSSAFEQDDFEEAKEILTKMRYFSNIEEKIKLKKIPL
UniProt Q8NB78: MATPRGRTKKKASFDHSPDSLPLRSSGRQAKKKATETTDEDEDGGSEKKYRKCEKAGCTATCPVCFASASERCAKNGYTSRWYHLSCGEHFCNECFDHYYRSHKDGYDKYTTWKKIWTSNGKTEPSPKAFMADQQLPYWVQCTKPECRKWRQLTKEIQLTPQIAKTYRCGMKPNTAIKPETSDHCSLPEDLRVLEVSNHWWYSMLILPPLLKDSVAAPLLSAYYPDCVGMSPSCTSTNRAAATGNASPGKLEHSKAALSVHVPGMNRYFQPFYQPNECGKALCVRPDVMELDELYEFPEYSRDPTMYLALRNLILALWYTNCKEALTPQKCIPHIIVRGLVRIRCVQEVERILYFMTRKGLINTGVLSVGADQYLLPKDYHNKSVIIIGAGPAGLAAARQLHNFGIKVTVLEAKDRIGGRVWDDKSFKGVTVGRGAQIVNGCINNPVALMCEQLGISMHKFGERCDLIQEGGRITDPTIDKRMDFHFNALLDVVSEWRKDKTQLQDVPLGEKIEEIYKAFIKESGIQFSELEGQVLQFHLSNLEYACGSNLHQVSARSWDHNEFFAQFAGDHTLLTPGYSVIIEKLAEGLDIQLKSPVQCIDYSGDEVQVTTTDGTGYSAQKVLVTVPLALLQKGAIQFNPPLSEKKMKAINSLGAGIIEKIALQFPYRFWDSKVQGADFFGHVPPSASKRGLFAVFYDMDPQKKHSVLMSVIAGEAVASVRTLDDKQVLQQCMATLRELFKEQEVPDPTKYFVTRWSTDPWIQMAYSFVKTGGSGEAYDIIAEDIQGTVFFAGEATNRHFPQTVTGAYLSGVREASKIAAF
UniProt Q8WZA9: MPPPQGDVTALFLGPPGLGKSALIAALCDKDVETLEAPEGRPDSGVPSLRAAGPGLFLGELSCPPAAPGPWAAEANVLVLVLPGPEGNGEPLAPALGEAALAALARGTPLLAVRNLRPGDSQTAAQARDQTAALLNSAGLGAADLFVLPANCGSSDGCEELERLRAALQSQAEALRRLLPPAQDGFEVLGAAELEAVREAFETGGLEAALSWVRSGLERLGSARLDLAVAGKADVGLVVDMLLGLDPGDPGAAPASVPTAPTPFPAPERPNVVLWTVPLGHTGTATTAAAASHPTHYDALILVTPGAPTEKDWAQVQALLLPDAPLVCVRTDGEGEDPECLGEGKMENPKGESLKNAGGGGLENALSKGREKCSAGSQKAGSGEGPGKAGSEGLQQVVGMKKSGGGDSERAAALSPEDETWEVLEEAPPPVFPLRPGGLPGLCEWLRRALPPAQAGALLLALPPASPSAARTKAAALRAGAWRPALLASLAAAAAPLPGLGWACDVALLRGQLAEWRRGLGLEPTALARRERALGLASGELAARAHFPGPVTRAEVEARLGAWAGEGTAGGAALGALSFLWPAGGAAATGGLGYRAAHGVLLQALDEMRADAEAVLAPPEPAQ
UniProt P19823: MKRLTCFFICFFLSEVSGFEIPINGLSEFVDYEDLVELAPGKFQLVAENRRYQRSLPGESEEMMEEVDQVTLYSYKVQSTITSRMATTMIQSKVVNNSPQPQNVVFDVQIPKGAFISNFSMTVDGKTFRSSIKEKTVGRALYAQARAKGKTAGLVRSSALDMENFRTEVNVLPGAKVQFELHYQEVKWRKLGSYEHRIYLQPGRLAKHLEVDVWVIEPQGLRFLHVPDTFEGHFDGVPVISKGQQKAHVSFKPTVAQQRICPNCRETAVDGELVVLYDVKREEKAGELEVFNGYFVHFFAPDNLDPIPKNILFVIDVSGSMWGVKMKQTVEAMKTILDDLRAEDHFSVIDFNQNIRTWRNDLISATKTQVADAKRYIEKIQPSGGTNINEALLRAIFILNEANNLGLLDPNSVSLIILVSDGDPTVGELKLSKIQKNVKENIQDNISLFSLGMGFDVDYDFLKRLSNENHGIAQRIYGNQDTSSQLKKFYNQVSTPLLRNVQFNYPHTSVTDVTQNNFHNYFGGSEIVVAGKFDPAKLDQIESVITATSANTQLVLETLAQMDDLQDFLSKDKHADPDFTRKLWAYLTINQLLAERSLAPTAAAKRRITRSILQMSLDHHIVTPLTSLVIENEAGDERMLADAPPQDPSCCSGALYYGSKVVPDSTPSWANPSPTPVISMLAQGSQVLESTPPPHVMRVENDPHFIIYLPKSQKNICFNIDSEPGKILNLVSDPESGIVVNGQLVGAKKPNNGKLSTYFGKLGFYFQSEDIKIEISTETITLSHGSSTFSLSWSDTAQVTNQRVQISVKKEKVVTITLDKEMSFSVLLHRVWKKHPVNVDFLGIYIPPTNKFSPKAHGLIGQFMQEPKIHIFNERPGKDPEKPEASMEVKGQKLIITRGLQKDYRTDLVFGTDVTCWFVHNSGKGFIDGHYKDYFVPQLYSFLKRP
UniProt Q9UK53: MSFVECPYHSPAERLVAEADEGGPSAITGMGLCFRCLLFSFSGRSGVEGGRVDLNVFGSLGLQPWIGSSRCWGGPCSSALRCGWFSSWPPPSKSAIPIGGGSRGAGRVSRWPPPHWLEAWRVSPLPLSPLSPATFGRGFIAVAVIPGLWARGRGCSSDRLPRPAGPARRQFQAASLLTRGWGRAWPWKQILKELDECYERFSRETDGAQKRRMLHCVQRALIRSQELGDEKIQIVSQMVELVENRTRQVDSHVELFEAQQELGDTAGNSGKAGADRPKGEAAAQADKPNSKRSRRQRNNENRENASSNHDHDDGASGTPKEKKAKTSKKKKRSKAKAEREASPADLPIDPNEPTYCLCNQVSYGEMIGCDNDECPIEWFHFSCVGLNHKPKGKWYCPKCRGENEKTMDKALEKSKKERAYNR
UniProt Q9UIQ6, whole entry: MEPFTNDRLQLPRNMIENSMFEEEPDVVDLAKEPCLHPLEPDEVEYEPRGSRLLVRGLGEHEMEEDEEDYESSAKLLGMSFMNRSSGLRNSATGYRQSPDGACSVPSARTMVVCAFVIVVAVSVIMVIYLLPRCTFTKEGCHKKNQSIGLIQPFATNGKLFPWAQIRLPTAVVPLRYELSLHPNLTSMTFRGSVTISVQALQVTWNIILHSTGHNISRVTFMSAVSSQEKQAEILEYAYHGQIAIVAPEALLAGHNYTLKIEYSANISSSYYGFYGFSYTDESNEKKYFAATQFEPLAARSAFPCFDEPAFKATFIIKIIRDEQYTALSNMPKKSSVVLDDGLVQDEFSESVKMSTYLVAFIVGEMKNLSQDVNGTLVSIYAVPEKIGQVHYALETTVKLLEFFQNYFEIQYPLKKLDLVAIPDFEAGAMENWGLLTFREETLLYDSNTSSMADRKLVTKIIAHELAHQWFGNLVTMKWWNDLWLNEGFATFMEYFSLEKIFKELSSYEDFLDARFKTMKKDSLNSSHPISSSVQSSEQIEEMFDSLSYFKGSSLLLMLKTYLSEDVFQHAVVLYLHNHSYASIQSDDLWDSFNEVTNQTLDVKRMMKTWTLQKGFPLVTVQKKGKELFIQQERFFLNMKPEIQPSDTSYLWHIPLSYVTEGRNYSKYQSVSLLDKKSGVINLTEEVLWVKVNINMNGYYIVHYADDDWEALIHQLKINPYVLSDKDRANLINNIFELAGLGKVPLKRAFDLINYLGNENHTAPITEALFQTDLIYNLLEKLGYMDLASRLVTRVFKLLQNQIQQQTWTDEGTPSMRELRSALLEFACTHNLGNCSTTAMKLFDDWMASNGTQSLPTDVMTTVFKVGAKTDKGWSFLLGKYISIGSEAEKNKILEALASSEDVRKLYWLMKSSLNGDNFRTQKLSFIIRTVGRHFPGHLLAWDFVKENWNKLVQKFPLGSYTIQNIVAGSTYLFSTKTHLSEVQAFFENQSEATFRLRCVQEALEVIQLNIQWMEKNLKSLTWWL
UniProt P07195, whole entry, looked up: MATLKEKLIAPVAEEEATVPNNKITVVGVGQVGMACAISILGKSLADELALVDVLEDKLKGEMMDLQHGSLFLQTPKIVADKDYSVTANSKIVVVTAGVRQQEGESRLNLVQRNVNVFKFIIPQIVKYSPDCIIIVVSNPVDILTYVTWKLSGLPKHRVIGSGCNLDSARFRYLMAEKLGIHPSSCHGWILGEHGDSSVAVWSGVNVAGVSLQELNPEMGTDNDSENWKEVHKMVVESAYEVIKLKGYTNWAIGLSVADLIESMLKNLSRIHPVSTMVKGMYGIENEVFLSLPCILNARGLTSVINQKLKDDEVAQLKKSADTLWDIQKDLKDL
UniProt Q99661: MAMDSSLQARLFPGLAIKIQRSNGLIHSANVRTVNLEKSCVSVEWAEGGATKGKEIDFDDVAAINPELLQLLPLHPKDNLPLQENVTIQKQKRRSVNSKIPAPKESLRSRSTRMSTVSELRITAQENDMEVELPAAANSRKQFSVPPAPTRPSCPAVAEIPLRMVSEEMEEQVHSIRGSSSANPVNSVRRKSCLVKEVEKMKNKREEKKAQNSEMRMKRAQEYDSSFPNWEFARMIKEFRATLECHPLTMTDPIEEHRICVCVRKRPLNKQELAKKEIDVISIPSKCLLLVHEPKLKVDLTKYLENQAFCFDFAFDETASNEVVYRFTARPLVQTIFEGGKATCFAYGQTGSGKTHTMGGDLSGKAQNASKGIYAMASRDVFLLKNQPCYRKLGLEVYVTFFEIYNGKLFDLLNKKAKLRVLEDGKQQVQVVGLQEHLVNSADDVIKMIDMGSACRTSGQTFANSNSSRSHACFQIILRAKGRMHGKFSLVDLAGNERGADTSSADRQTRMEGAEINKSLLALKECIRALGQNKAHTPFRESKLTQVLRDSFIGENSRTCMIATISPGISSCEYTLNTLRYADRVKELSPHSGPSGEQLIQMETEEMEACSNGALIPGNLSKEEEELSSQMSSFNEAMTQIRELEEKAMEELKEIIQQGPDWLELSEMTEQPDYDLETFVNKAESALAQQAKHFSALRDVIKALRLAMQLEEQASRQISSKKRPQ

This is one part of the list.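 How the source made its calls: active = dose-dependent thermal stabilisation significant by F-test of dose-response against flat model at 10% FDR; inactive = not significant.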

Compound in this assay: Nc1nc2c(ncn2[C@@H]2O[C@H](COP(=O)(O)OP(=O)(O)OP(=O)(O)O)[C@@H](O)[C@H]2O)c(=O)[nH]1
Kind of assay: dose-dependent thermal stabilisation call (2D-TPP, DLPTP, 10% FDR) (binary (1 = stabilised)); higher = stabilised by the compound. Conditions: system: Jurkat gel-filtered lysate; concentration range 1-500 µM.
Take HSPA5 (UniProt P11021): the “dose-dependent thermal stabilisation call” value was active: 1.

Consider INTS11 (UniProt Q5TA45), for which the “dose-dependent thermal stabilisation call” value was inactive: 0.

As for KRT1 (UniProt P04264), the “dose-dependent thermal stabilisation call” value is inactive: 0.

Consider KIAA0754 (UniProt O94854), for which the “dose-dependent thermal stabilisation call” value was inactive: 0.

Take KPTN (UniProt Q9Y664): the “dose-dependent thermal stabilisation call” value is inactive: 0.

As for IFT43 (UniProt Q96FT9), the “dose-dependent thermal stabilisation call” value was inactive: 0.

On to LMNB1 (UniProt P20700), for which the “dose-dependent thermal stabilisation call” value is inactive: 0.

For the target KIF15 (UniProt Q9NS87), the “dose-dependent thermal stabilisation call” value was active: 1.

As to KIAA0930 (UniProt Q6ICG6), the “dose-dependent thermal stabilisation call” value was inactive: 0.

Regarding KBTBD2 (UniProt Q8IY47), the “dose-dependent thermal stabilisation call” value is inactive: 0.

With HSPB11 (UniProt Q9Y547), the “dose-dependent thermal stabilisation call” value is inactive: 0.

Consider ISG15 (UniProt P05161), for which the “dose-dependent thermal stabilisation call” value was inactive: 0.

In the case of HSCB (UniProt Q8IWL3), the “dose-dependent thermal stabilisation call” value is inactive: 0.

As to LGALS3BP (UniProt Q08380), the “dose-dependent thermal stabilisation call” value was inactive: 0.

In the case of KIF23 (UniProt Q02241), the “dose-dependent thermal stabilisation call” value is inactive: 0.

As for KLHL11 (UniProt Q9NVR0), the “dose-dependent thermal stabilisation call” value was inactive: 0.

As to LARS (UniProt Q9P2J5), the “dose-dependent thermal stabilisation call” value was inactive: 0.

On to LIMK2 (UniProt P53671), for which the “dose-dependent thermal stabilisation call” value was active: 1.

LGALSL (UniProt Q3ZCW2): the “dose-dependent thermal stabilisation call” value was inactive: 0.

As for HSP90AA4P (UniProt Q58FG1), the “dose-dependent thermal stabilisation call” value is inactive: 0.

For the target IAH1 (UniProt Q2TAA2), the “dose-dependent thermal stabilisation call” value is inactive: 0.

For KDM1B (UniProt Q8NB78), the “dose-dependent thermal stabilisation call” value was inactive: 0.

Turning to IRGQ (UniProt Q8WZA9), the “dose-dependent thermal stabilisation call” value was inactive: 0.

In the case of LCOR (UniProt Q96JN0), the “dose-dependent thermal stabilisation call” value is inactive: 0.

As to ITIH2 (UniProt P19823), the “dose-dependent thermal stabilisation call” value is inactive: 0.

On to HYPK (UniProt Q9NX55), for which the “dose-dependent thermal stabilisation call” value is inactive: 0.

Take L3HYPDH (UniProt Q96EM0): the “dose-dependent thermal stabilisation call” value was inactive: 0.

As for IVNS1ABP (UniProt Q9Y6Y0), the “dose-dependent thermal stabilisation call” value is inactive: 0.

ING1 (UniProt Q9UK53): the “dose-dependent thermal stabilisation call” value was inactive: 0.

For the target LNPEP (UniProt Q9UIQ6), the “dose-dependent thermal stabilisation call” value was inactive: 0.

On to LDHA (UniProt P00338), for which the “dose-dependent thermal stabilisation call” value is inactive: 0.

As to JMJD6 (UniProt Q6NYC1), the “dose-dependent thermal stabilisation call” value is inactive: 0.

On to LDHB (UniProt P07195), for which the “dose-dependent thermal stabilisation call” value was inactive: 0.

In the case of JMY (UniProt Q8N9B5), the “dose-dependent thermal stabilisation call” value is inactive: 0.

On to KIF2C (UniProt Q99661), for which the “dose-dependent thermal stabilisation call” value is active: 1.

For KIZ (UniProt Q2M2Z5), the “dose-dependent thermal stabilisation call” value was inactive: 0.
